Here are results for four molecules from paper PMC9786777, “Phosphorylation of Thr9 Affects the Folding Landscape of the N-Terminal Segment of Human AGT Enhancing Protein Aggregation of Disease-Causing Mutants” (Molecules, 2022).

These are yes or no findings as the source states them, for the method shown.

Common to all, as to assay: translational diffusion NMR (DOSY); peptide alone at 100 µM, 100 mM sodium phosphate pH 7.2, 100% D2O, 10 °C, 1% dioxane as reference for Rh; both purified
Experiment [1] concerns the target NTT-AGT P11L peptide (human).
Experiment [2] deals with NTT-AGT WT peptide (human).
Experiment [3] concerns the target NTT-AGT T9E peptide (human).
For experiment [4], the target named is NTT-AGT T9E-P11L peptide (human).

B1: NTT-AGT P11L peptide (peptide)
peptide: MASHKLLVTPLKALLKPLSIPY
modifications: C-terminal amide (on the added Y)
Regarding B1, in experiment [1], the binding entry is given as “no binding (tested: 100 µM)”.

B2: NTT-AGT WT peptide (peptide)
peptide: MASHKLLVTPPKALLKPLSIPY
modifications: C-terminal amide (on the added Y)
As for B2, the binding result in experiment [2] is “no binding (tested: 100 µM)”.

B3: NTT-AGT T9E peptide (peptide)
peptide: MASHKLLVEPPKALLKPLSIPY
modifications: C-terminal amide (on the added Y)
As to B3, the binding result in experiment [3] was “no binding (tested: 100 µM)”.

B4: NTT-AGT T9E-P11L peptide (peptide)
peptide: MASHKLLVEPLKALLKPLSIPY
modifications: C-terminal amide (on the added Y)
Take B4: the binding entry in experiment [4] is given as “no binding (tested: 100 µM)”.
